# Results reported in US20140194506A1, “Use of Potassium Piperonyl Pentadienoate for Lowering Blood Lipid” (INNER MONGOLIA UNIVERSITY, priority 2011, published 2014).
# At least one compound was matched to its structure with a doubt left.
# What was measured:
# [1] = test system: high lipid mode white rats; test: Prophylactic blood lipid lowering in high lipid feed white rats (Example 2); assay type: in vivo, Wistar male white rats; conditions: in comparison with group II (high lipid mode control group)
# Text: High lipid feed formula: cholesterol 3%, lard 10%, sodium cholate 0.5%, basal feed: […] (formula: flour 17.14%, rice flour 8.57%, maize […], bran 21%, fish flour 1.71%, dairy salt 0.857%, vitamin 0.085%, bean material 17.14%).
# 60 Wistar White male rats of 150±10 g of body weight were fed with common standard feed for 5 days, and then divided into 6 groups randomly. Each group included 10 rats. Group I was a blank group, where the rats were fed with common standard feed. Group II was a high lipid feed mode control group. Group III was a Simvastatin 10 mg/kg group. Group IV was a GB-O group. Group V was a GB-H group. Group VI was a GB-K group. High lipid feed mode control group were fed with high lipid feed together with distilled water. Groups III, IV, V, and VI were fed with high lipid feed together with required simvastatin, GB-O, GB-H, and GB-K suspensions (formulated by grinding with 0.5% sodium […] CMC-Na) respectively. The dosing amount was 0.046 mmol/kg, and the amount of high lipid feed was 20 g per day for each rat. The grouping and the dosing amount for each group can be found in table 1.
# (§1) The body weights of white rats were determined and recorded every day. […] The values of serum total cholesterol (TC), and triglyceride (TG) were determined on an automatic analyzer using enzymatic colorimetry, the value of high density lipoprotein cholesterol (HDL) was determined using a phosphotungstic acid-Mg precipitation method, and the value of low density lipoprotein cholesterol (LDL) was determined using the polyvinyl sulfate precipitation method. […]
# The reaction temperature was 37° C. […] The resulting H2O2 was reacted with 4-aminoantipyrine (4-AAP) and 4-chlorophenol in the presence of peroxidase (POD) (Trinder reaction), to yield red quinine imine, which was colorimetrically determined at a 500 nm wavelength.
# The LDL in serum was precipitated using PVS. The serum TC and the Ch in the resulting supernatant were determined using the enzymatic methods described hereinabove, and the LDL-C was calculated by subtracting the Ch from the serum TC. […]
# [2] = test system: high lipid mode white rats; test: Therapeutic blood lipid lowering in hyperlipoidemia mode white rats (Example 3); assay type: in vivo, Wistar male white rats; conditions: in comparison with group II (high lipid mode control group)
# Text: High lipid feed formula: cholesterol 3%, lard 10%, sodium cholate 0.5%, basal feed: 86.5% (formula: flour 17.14%, rice flour 8.57%, maize 17.14%, bran 21%, fish flour 1.71%, dairy salt 0.857%, vitamin 0.085%, bean material 17.14%).
# 72 Wistar white male rats of 170±10 g of body weight were divided into 6 groups randomly and numbered. Each group included 12 rats. The rats were fed with common standard feed under experimental conditions and observed for 7 days, and its blood was sampled from tail for testing serum total cholesterol (TC). […] From the 8th day, the group I was set as a blank group, and was fed with common standard feed. Other groups were fed with high lipid feed for 8 days in a row, and the blood was sampled from tail on the next day for testing TC. […] The rats then were divided into 5 groups randomly (see table 12) according to TC levels. Each group included 10 rats (10 rats who were unsuccessful blood lipid modes were discarded). The rats were ted with high lipid teed continuously. Group was a high lipid feed mode control group. Group III was a Simvastatin 10 mg/kg group. Group IV was a GB-O group. Group V was a GB-H group. Group VI was a GB-K group. The high lipid feed mode control group was fed with high lipid feed together with distilled water. Groups III, IV, V, and VI were fed with high lipid feed together with required simvastatin, GB-O, GB-H, and GB-K suspensions (formulated by grinding with 0.5% sodium carboxymethycellulose CMC-Na) respectively. The dosing amount was 0.046 mmol/kg, and the amount of high lipid feed was 20 g per day for each rat. […]
# as §1, with “using a” for “using the”
smiles,measurement,setting,value
CCC(C)(C)C(=O)O[C@H]1C[C@@H](C)C=C2C=C[C@H](C)[C@H](CC[C@@H]3C[C@@H](O)CC(=O)O3)[C@H]21 [Simvastatin],"effect on serum low density lipoprotein cholesterol, in words",[1],show the effect of lowering serum low density lipoprotein cholesterol value
same,"effect on serum total cholesterol, in words",[1],extremely significant differences
same,"effect on serum triglyceride, in words",[1],extremely significant differences
same,"effect on serum high density lipoprotein cholesterol, in words",[2],significant difference
same,"effect on serum low density lipoprotein cholesterol, in words",[2],extremely significant difference
same,"effect on serum total cholesterol, in words",[2],extremely significant difference
